This is an account of results in paper PMC7819943, “Rice protein-binding microarrays: a tool to detect cis-acting elements near promoter regions in rice”.

Some of the results follow.

This test has as its target T1, OsSMF1 (Oryza sativa, UniProt Q6ZLB0 1-436).
T1 sequence: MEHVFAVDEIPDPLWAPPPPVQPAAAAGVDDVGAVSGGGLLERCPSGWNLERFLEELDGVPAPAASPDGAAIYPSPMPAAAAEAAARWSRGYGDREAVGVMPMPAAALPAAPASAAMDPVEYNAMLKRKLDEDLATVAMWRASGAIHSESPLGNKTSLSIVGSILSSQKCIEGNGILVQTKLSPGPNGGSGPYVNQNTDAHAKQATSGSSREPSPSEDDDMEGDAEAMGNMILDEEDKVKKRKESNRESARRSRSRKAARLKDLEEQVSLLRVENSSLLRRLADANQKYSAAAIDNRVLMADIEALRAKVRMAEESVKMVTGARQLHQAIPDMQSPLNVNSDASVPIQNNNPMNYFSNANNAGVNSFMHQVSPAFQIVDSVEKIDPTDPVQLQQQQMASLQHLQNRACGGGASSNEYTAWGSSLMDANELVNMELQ
The test is described as follows: protein-binding microarray (RPBM); PBS, 2% BSA, 51.3 ng/ul salmon testes DNA, 50 uM zinc acetate, 200 nM TF, 25 C, 1 h; high values mean tight binding. As to conditions: protein: recombinant; tags: N-terminal polyhistidine and DsRed monomer fusion (pET32a); chain copies: 2; label: CyDye5-dUTP incorporated in the synthesized complementary strand; 3' TTTTT single-stranded linker to array surface; dsDNA, one strand shown. In outline:
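A custom Agilent array was converted to double-stranded form by primer extension with Cy5-dUTP and blocked with 2% BSA. Protein at 200 nM in PBS with 2% BSA, salmon testes DNA and 50 µM zinc acetate was applied for 1 h at 25 °C, followed by washing. The proteins were polyhistidine–DsRed N-terminal fusions of transcription factors, expressed in E. coli BL21-CodonPlus and Ni–NTA-purified. The binding signal is per-feature fluorescence intensity (arbitrary units) from an Axon 4000B scanner.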
As to “CCGAGCCACGTCGCGCCGCCGCCGCTGCTGTGCCGCCGCGCGGAGTCACCTAGTGCAG”, the binding signal was 5650 fluorescence intensity (a.u.).

Regarding “TAAACAAACCATTTCCTCCCCGCTATTGCGACTCCCGCCTCGGAGTCACCTAGTGCAG”, the binding signal is 22900 fluorescence intensity (a.u.).

For “ATATTAAAATACGGAGGGAGTACTTGTTTACAGTTCTAAGCGGAGTCACCTAGTGCAG”, the binding signal is 3410 fluorescence intensity (a.u.). With “ATGGCTGGCATTAGACTACACGTCGTTGCTCCACTTGTGTCGGAGTCACCTAGTGCAG”, the binding signal is 5280 fluorescence intensity (a.u.).

As to “TCATTGCTCTAAAATAATCTCTATATGTTGTCAAGTAGGACGGAGTCACCTAGTGCAG”, the binding signal was 3300 fluorescence intensity (a.u.). As to “TCCTCCACCACTCACACTCCGCCACGTGTCCATCTAAGCCCGGAGTCACCTAGTGCAG”, the binding signal is 17000 fluorescence intensity (a.u.). As for “GGCCCATCACACGCGGCGCCTCTCTCTCCCTCTCCCCAAACGGAGTCACCTAGTGCAG”, the figure is 3700 fluorescence intensity (a.u.); as for “GTCAAGTTGCTTTTGCATTTGCATACGCACACACTGCCATCGGAGTCACCTAGTGCAG”, 3830 fluorescence intensity (a.u.).

As to “ACATTATCATGTCACGTCGTCGCGTAATCATGGGTACCCACGGAGTCACCTAGTGCAG”, the binding signal is 4200 fluorescence intensity (a.u.).

“ATATTCAGCTGATTGGGGCATTGGGTATTTGCAGTGAGCACGGAGTCACCTAGTGCAG”: the binding signal was 3460 fluorescence intensity (a.u.).

Take “ATCCATGCGGACGCAGCTAGCAGTCGTCGTTGCGTTGCTTCGGAGTCACCTAGTGCAG”: the binding signal was 3620 fluorescence intensity (a.u.).

Regarding “AAAACAATATTAAAGGTATAAGTACATCGTGTATGTTTTACGGAGTCACCTAGTGCAG”, the binding signal was 6520 fluorescence intensity (a.u.). For “GAACTCCGGTCGGGATCGCGTAAACTGCGACGTGGGCTTGCGGAGTCACCTAGTGCAG”, the binding signal is 3780 fluorescence intensity (a.u.).

Regarding “CAAAATCGGATACAACGCATCCCTCAACTTACAAAACCGTCGGAGTCACCTAGTGCAG”, the binding signal is 3490 fluorescence intensity (a.u.).

As for “TTATTTGTTTAATTAGGACGTTCCACGTGTTTGACTATCACGGAGTCACCTAGTGCAG”, the binding signal was 8620 fluorescence intensity (a.u.). The figure for “GGGGCAAGCAATGCCACGTATGTTTGTCACAGTTTGCAGGCGGAGTCACCTAGTGCAG” is 13400 fluorescence intensity (a.u.); for “TTTCATCCGATGTTTCGTGAGGGGTGACAAATTAATTGATCGGAGTCACCTAGTGCAG” it is 3980 fluorescence intensity (a.u.); for “TCTTGGGGTGCTCGAACACGACGTGGCTCCACGCCGACCGCGGAGTCACCTAGTGCAG” it is 6760 fluorescence intensity (a.u.). On to “GCGTTGCTCCGGTGCTCGATCGGTCTCCCCGCCCGGCCGCCGGAGTCACCTAGTGCAG”, for which the binding signal was 9620 fluorescence intensity (a.u.). Consider “AAGCCCAAAATTTAGTAGGACGTCACTTCTCACTACCTGGCGGAGTCACCTAGTGCAG”, for which the binding signal is 3800 fluorescence intensity (a.u.). For the sequence “CACACCACAAGCGCACGACACACGTCACACACAAACCAACCGGAGTCACCTAGTGCAG”, the binding signal is 7680 fluorescence intensity (a.u.).

As for “TCGATTTGGGGAAGGGAGAGGCGTGTGGCGTGTGACGTGTCGGAGTCACCTAGTGCAG”, the binding signal was 19500 fluorescence intensity (a.u.). As for “TACAAACTGAAACATCTGTGTGTCACTAGTCAGTCACTATCGGAGTCACCTAGTGCAG”, the figure is 3850 fluorescence intensity (a.u.).

As for “TATTTAATTGTTGTTACAATGACACTGCTTTACAACCTATCGGAGTCACCTAGTGCAG”, the binding signal was 3990 fluorescence intensity (a.u.). As to “TTATGTATTTCCTTTTATGGTGACACTACAGTGTTTTGCGCGGAGTCACCTAGTGCAG”, the binding signal is 3600 fluorescence intensity (a.u.). As for “TTATGGATGCGCCGCGCGCACCTGTGACGTGTTGCCGGCGCGGAGTCACCTAGTGCAG”, the figure is 11800 fluorescence intensity (a.u.).

As for “GATCAAATTGCCACGTAAGCGCCACGTCAATGCCATGTCACGGAGTCACCTAGTGCAG”, the binding signal is 48000 fluorescence intensity (a.u.).

On to “AGCGACGCGCACCTAAACACGTGTGACGCGAGCGGCGAGCCGGAGTCACCTAGTGCAG”, for which the binding signal is 5710 fluorescence intensity (a.u.). The figure for “GCTGAATTTACGTGGATGAGCTAATTAGGTCCAGGACATTCGGAGTCACCTAGTGCAG” is 3160 fluorescence intensity (a.u.); for “TCCAAACACGCGCAAACACCGCACGTGCCTGACCCAAACTCGGAGTCACCTAGTGCAG” it is 3210 fluorescence intensity (a.u.); for “ACAAGCTGAGTTGGAGATTAACAAAGAATGGTGTGTTCACCGGAGTCACCTAGTGCAG” it is 3810 fluorescence intensity (a.u.). As for “CTGTTAAGTGTCAATGGGTACGTCACCTAGCTGTAAATACCGGAGTCACCTAGTGCAG”, the figure is 3460 fluorescence intensity (a.u.); as for “CCCCATCCTAGATGGAACAACCACGTCATCTCATGGGTGACGGAGTCACCTAGTGCAG”, 14800 fluorescence intensity (a.u.); as for “TATTAGATTACACACGTTTTCCCATAAGCTATCTTTTAAGCGGAGTCACCTAGTGCAG”, 3260 fluorescence intensity (a.u.). The figure for “ATAGCGCGCACCACCACTCGGCGTGTACACACACACACATCGGAGTCACCTAGTGCAG” is 3820 fluorescence intensity (a.u.); for “ACGTTAGCGCCACGTGGCACCGGCCTTTCGTCCTTATCCTCGGAGTCACCTAGTGCAG” it is 24800 fluorescence intensity (a.u.); for “GGTGGAGTTGCCTTGCCCGAGAGGAGCGGGCACTTCGGGTCGGAGTCACCTAGTGCAG” it is 4840 fluorescence intensity (a.u.). In the case of “CGATTGGTAGATGCAGTTCTCAGCTCTCAATGATGCAACTCGGAGTCACCTAGTGCAG”, the binding signal is 3690 fluorescence intensity (a.u.). With “GTCGTCTAGTAGTAGTAGCCTACCACCACCTCCCTCGGCGCGGAGTCACCTAGTGCAG”, the binding signal was 3230 fluorescence intensity (a.u.). Turning to “AAAACGTGCACGTGGAAAACGAGCTAGATGGGTTGGGAAGCGGAGTCACCTAGTGCAG”, the binding signal is 3320 fluorescence intensity (a.u.). As to “TCTCGCTTACAGGTGGGTCCCACACGTCATCCTCTCCGGGCGGAGTCACCTAGTGCAG”, the binding signal is 18800 fluorescence intensity (a.u.). The figure for “TGGGTGGGTGCGGCGTGGAGTGACGTGGCGGCGGGTGTGGCGGAGTCACCTAGTGCAG” is 20900 fluorescence intensity (a.u.).
